Values after ≈ are worked out from the molar mass of the structure shown.
Tested on: S. aureus ATCC 29213
Test: antibiotic susceptibility testing using the cell culture test device (DRAST), reference strain
Format: cell-based
Details: Staphylococcus aureus, ATCC29213, observed until 6 h
Text: Referring first to (a) of FIG. 4, a liquid medium containing a gelling agent is mixed with a biological agent to prepare a mixture solution as a first fluid. The liquid medium may include at least about 95% by weight of water and can be solidified due to the presence of the gelling agent. As the gelling agent, there may be exemplified agar, agarose, gelatin, alginate, collagen or fibrin. The use of agar or agarose is preferred. For example, agar may be used in an amount of 0.5 to 4% by weight in the liquid medium. The liquid medium usually requires no nutrients. In some examples, however, the liquid medium may include nutrients. The liquid medium may be a solution including a medium stimulating the division of particular cells.
Referring next to (b) of FIG. 4, the mixture solution is provided to a recess 421 formed at the bottom of a first sub-well. The mixture solution may be loaded in an amount corresponding to the volume of the recess of the first sub-well. The volume of the mixture solution loaded into the recess of the first sub-well is preferably from 10 μl to 200 μl, more preferably from 10 μl to 150 μl. If the volume of the mixture solution loaded into the first sub-well is less than the lower limit, the density of cells in the mixture solution is low, making it difficult to observe the cells. […]

`CC1(C)S[C@@H]2[C@H](NC(=O)[C@H](N)c3ccccc3)C(=O)N2[C@H]1C(=O)O` [ampicillin] showed an MIC of 1 µg/mL (≈ 2.86 µM).
